Publication PMC3025922 (BMC Biology, 2010)

Tested on: nuclear p27 in LNCaP-S14 cells
Type: cell-based, human

Question: For Cc1cc(C=Cc2ccc3cc(N(C)C)ccc3[n+]2C)c(C)n1-c1ccccc1.O=C([O-])c1cc2ccccc2c(Cc2c(O)c(C(=O)O)cc3ccccc23)c1O [501K03], which Clasf is on record?
Answer: S (key: S: strong (Z score > 5); M: medium (Z score 3-5); W: weak (Z score 2-3)

Question: And the “Z score (aver)” value?
Answer: 14.00
